For one substance, binding results are on record in article PMC12559216.

By UniProt entry, the sequences of proteins in these tests, tags left out. Where a name states a change or a piece, a line headed by the entry shows the natural chain unless it says otherwise.
UniProt Q15561: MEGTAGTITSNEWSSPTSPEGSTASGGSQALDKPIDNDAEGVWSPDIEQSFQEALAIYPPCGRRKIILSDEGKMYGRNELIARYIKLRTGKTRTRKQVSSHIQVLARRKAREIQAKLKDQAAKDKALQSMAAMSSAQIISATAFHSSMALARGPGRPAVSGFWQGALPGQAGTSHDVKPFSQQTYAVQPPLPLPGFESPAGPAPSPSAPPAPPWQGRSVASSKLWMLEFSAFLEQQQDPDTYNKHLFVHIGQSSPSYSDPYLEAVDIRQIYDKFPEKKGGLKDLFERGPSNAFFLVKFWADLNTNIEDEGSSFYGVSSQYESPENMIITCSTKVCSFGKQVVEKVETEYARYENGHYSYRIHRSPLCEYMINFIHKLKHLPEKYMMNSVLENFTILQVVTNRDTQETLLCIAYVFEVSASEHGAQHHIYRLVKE
UniProt Q9GZV5: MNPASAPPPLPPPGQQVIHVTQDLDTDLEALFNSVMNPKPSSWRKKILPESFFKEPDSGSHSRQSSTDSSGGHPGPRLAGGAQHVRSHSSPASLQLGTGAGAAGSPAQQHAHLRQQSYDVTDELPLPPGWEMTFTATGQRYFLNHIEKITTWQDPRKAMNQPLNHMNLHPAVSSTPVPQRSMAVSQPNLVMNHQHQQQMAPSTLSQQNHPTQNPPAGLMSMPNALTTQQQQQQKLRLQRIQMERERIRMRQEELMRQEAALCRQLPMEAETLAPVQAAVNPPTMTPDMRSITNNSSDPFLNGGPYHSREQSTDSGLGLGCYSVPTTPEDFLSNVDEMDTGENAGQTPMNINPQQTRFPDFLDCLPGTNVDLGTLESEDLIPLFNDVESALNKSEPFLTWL

The experiment has as its target TEAD4 (human (endogenous in A375R)) (UniProt Q15561). Briefly: co-IP; YAP and TAZ bound to TEAD4 in A375R cells, with LINC01198 knockdown or overexpression; detection method not stated.

Results are given in words; binding and its absence hold for the method and conditions named. In cells and extracts the contact can be indirect. Some results given as binding are weak or reduced against the parent protein; the word gives no strength.

On to TAZ (from UniProt Q9GZV5 1-400), for which the binding entry was “binds”.
